Data as given in PubChem BioAssay AID652243 (Drosophila RNAi Screening Center, 2013).

Test: 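Knock-downs that decrease or increase androgen receptor reporter signal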 (primary screen)
System: Drosophila S2R+ cells
Knock-down reagent: long dsRNA against Drosophila genes
Duration: 72 h (48 h, then 24 h hormone)
Treatment: synthetic androgen R1881 at 10 nM for 24 h
Detection: 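Firefly light from an androgen-responsive reporter and Renilla control light per well, raw and unnormalised, for each of two replicates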
Scale: firefly reporter light: higher = more light from androgen-responsive reporter; Renilla control light: higher = more constitutive control signal (cell number, transfection)
Active means: 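Hit when the log firefly-to-Renilla ratio dropped or increased by a fixed fold versus the mean of GFP or LacZ controls across duplicate plates; lowering cut given as 1.5 and as 3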
Calls: active = hit: reporter lowered or raised; inactive = no hit
The screen tested about 24,000 reagents; shown is an unselected part of those with a known target gene and a result. Over the whole deposit, 246 (1%) got an active call. 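Plates not normalised; calls are printed but the firefly/Renilla ratio behind them is not deposited; fold cut for lowering reported inconsistently.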 The raw values are shown without normalisation. Unmarked entries are inactive. Not stated in the record: the amount of reagent.

The opening 4 records, to show the layout:
predicted target | PubChem SID | firefly reporter light, replicate 1 | firefly reporter light, replicate 2 | Renilla control light, replicate 1 | Renilla control light, replicate 2
CG18748 | SID104195177 | 64061 | 1.66e5 | 1.61e6 | 2.30e6
CG10584 | SID104191416 | 2.73e5 | 2.63e5 | 3.42e6 | 3.24e6
CG9689 | SID104198232 | 1.04e5 | 1.02e5 | 7.49e5 | 8.48e5
CG9689 | SID104206849 | 3.56e5 | 5.24e5 | 9.36e5 | 1.49e6

The list itself, from the start:
predicted target | PubChem SID | firefly reporter light, replicate 1 | firefly reporter light, replicate 2 | Renilla control light, replicate 1 | Renilla control light, replicate 2
CG18748 | SID104195177 | 64061 | 1.66e5 | 1.61e6 | 2.30e6
CG10584 | SID104191416 | 2.73e5 | 2.63e5 | 3.42e6 | 3.24e6
CG9689 | SID104198232 | 1.04e5 | 1.02e5 | 7.49e5 | 8.48e5
CG9689 | SID104206849 | 3.56e5 | 5.24e5 | 9.36e5 | 1.49e6
Kaz-m1 (Kazal-type protease inhibitor m1) | SID104196782 | 1.04e5 | 1.56e5 | 1.94e6 | 2.49e6
stac (staccato) | SID104193485 | 88137 | 81624 | 1.53e5 | 2.07e5
stac (staccato) | SID104194184 | 1.57e5 | 2.12e5 | 1.65e6 | 1.60e6
stac (staccato) | SID104201735 | 4.44e5 | 4.33e5 | 1.46e6 | 1.07e6
stac (staccato) | SID104215440 | 3.81e5 | 4.65e5 | 9.26e5 | 1.50e6
RpS13 (Ribosomal protein S13) | SID104183211 | 3.88e5 | 5.14e5 | 1.10e6 | 1.19e6
RpS13 (Ribosomal protein S13) | SID104207102 | 1.88e5 | 3.70e5 | 6.89e5 | 1.01e6
Kank | SID104185305 | 2.68e5 | 3.08e5 | 2.51e5 | 2.99e5
Kank | SID104185725 | 1.41e6 | 1.61e6 | 2.40e6 | 2.77e6
CG15533 | SID104194861 | 1.47e5 | 1.32e5 | 1.95e6 | 2.12e6
CG15533 | SID104208575 | 6.58e5 | 7.07e5 | 1.43e6 | 1.40e6
Mal-A7 (Maltase A7) | SID104185869 | 3.04e5 | 2.97e5 | 1.64e6 | 1.35e6
CG12539 | SID104199262 | 2.93e5 | 2.27e5 | 2.85e6 | 2.54e6
CG12539 | SID104208113 | 2.61e5 | 3.43e5 | 5.15e5 | 5.15e5
abd-A (abdominal A) | SID104192971 | 18780 | 19982 | 1.17e5 | 1.02e5
abd-A (abdominal A) | SID104202370 | 7.29e5 | 9.70e5 | 1.67e6 | 1.74e6
abd-A (abdominal A) | SID104207609 | 5.44e5 | 4.54e5 | 1.67e6 | 1.32e6
CG32182 | SID104189300 | 1.16e5 | 1.19e5 | 2.33e5 | 2.45e5
CG32182 | SID104203276 | 9.42e5 | 1.51e6 | 5.79e5 | 9.14e5
CG13101 | SID104181993 | 1.14e6 | 9.99e5 | 2.88e6 | 1.96e6
mei-38 (meiotic 38) | SID104198356 | 1.26e5 | 1.62e5 | 3.41e6 | 3.87e6
CG13392 | SID104182054 | 1.69e5 | 1.83e5 | 1.21e6 | 1.32e6
Cys (Cystatin-like) | SID104196429 | 1.77e5 | 2.23e5 | 2.81e6 | 3.08e6
Cys (Cystatin-like) | SID104206340 | 2.35e5 | 1.59e5 | 6.23e5 | 7.87e5
CG15544 | SID104194874 | 4.97e5 | 5.39e5 | 2.87e6 | 3.59e6
CG15544 | SID104204230 | 6.33e5 | 6.53e5 | 8.58e5 | 7.31e5
CG4914 | SID104190250 | 1.40e5 | 1.41e5 | 2.06e6 | 1.69e6
beat-Ib (beaten path Ib) | SID104183282 | 1.30e5 | 1.89e5 | 1.92e6 | 1.89e6
CG4020 | SID104198129 | 2.47e5 | 4.76e5 | 3.16e6 | 3.32e6
tna (tonalli) | SID104202593 | 8.31e5 | 1.12e6 | 1.82e6 | 1.62e6
tna (tonalli) | SID104208074 | 7.35e5 | 6.80e5 | 1.01e6 | 1.01e6
CG12115 | SID104197603 | 3.88e5 | 4.35e5 | 2.82e6 | 3.62e6
FoxP (Forkhead box P) | SID104194951 | 81168 | 1.29e5 | 1.77e6 | 1.75e6
FoxP (Forkhead box P) | SID104201573 | 7.78e5 | 5.63e5 | 1.96e6 | 1.36e6
FoxP (Forkhead box P) | SID104207951 | 1.36e6 | 7.57e5 | 1.20e6 | 1.20e6
cbc (crowded by cid) | SID104186749 | 1.08e6 | 1.08e6 | 2.39e6 | 2.48e6
poe (purity of essence) | SID104183385 | 1.38e6 | 1.05e6 | 2.61e6 | 2.75e6
poe (purity of essence) | SID104207081 | 1.40e5 (active) | 2.58e5 | 5.50e5 | 9.21e5
Dnaaf5 (Dynein axonemal assembly factor 5) | SID104192824 | 1.41e5 | 1.73e5 | 1.83e5 | 2.58e5
Con (Connectin) | SID104188444 | 7.51e5 | 9.16e5 | 6.42e5 | 1.34e6
CG30458 | SID104207179 | 3.53e5 | 3.50e5 | 1.11e6 | 1.25e6
CG18327 | SID104186514 | 47722 | 41360 | 1.31e6 | 1.31e6
CG18327 | SID104203168 | 8.02e5 | 5.58e5 | 9.48e5 | 7.66e5
CG34144 (retired record) | SID104198677 | 1.69e6 | 7.09e5 | 3.95e6 | 1.63e6
CG34144 (retired record) | SID104199172 | 1.89e5 (active) | 1.88e5 | 3.03e6 | 2.93e6
CG34144 (retired record) | SID104202641 | 8.33e5 | 7.52e5 | 98702 | 95751
CG34144 (retired record) | SID104216173 | 2.42e5 | 2.79e5 | 9.64e5 | 1.22e6
CG14856 | SID104194772 | 2.32e5 | 2.35e5 | 3.08e6 | 3.79e6
CG31886 | SID104183040 | 1.57e6 | 1.28e6 | 2.84e6 | 2.43e6
CG31886 | SID104205964 | 2.92e5 | 3.71e5 | 7.20e5 | 7.56e5
Mtch | SID104188471 | 8.25e5 | 9.32e5 | 1.15e6 | 9.99e5
CG13724 | SID104189845 | 2.83e5 | 1.58e5 | 1.94e6 | 1.31e6
CG13724 | SID104203941 | 1.04e6 | 1.34e6 | 7.93e5 | 8.29e5
ssp7 (short spindle 7) | SID104198670 | 1.46e6 | 5.17e5 | 2.78e6 | 9.26e5
